# Hit rate of the full screen: of about 52,000 sequences, about 210 (0.4%) were called active.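 Rule for the calls: active = gene whose silencing raises cell survival under the drug, median off-target-corrected z-score across its silencing RNAs 2 or more; inactive = the rest.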 The list shows a part of the results.
# Experiment: Resistance to Poly (ADP-Ribose) Polymerase inhibitor: Gene Identification via Genome-wide siRNA Screen
# Settings: mouse BRCA2 R2336H ES cells, olaparib, CellTiter-Glo viability; active compounds read high
# Outline: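 Mouse BRCA2 R2336H ES cells were reverse-transfected with siRNA (20 nM final), treated at 48 h with 500 nM olaparib, and read by CellTiter-Glo after 72 h. Scores: MAD-based z per siRNA, median per gene, seed off-target correction.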
row,Sequence,z-score
1,CCUCGGUAUUAACGUGGAATT against Dmrta2,inactive: 1.71
2,GCUCGACAGCUACAGAGUUTT against D4Ertd478e,inactive: -1.29
3,CCGGCUUUGAAGUCAUUACTT against Slc4a3,inactive: -1.18
4,GGACUGUGCAUUUUCAGGUTT against Sumo1,inactive: -0.183
5,GGAAGCCCUUAUGGACGAATT against Ang2,inactive: 0.0956
6,GGAGAUACAGGAUAUUAUUTT against Nme5,inactive: 0.353
7,GCUAAAUUUCCCAUAGGAATT against Pmch,inactive: 0.289
8,GGAGCUAUUUUAGAUUAUGTT against 1100001D10Rik,inactive: -0.514
9,GGACCAAGCCACCAAAACUTT against V1rg7,inactive: -0.124
10,GGAUCUUUAAGUUUUCCCGTT against Kcnd2,inactive: 1.17
11,GCCGACAGUUAAGUUUCUCTT against Supt3h,inactive: 1.93
12,UCUGGGUGUAAUGAAGGAGTT against BC015286,inactive: -1.47
13,CCUACCGCUAUGUAGUCAGTT against Dnase1,inactive: 1.32
14,GGAACUGGAUGAAAACGGATT against S100a1,inactive: 0.674
15,GGCUAUUGUGGAGAAGAUCTT against Gif,inactive: -1.75
16,GCAGCACCAUCACUAGUGUTT against Ndufs6,inactive: 0.0314
17,CCACACUUAGUCAUUUUCUTT against BC034902,inactive: 0.335
18,GGGCAUUGGAUGUGCUGAATT against Clic3,inactive: -0.17
19,GGUGCCUACCAUGAAGAACTT against 1700010D01Rik,inactive: 0.964
20,GGAAAUCCAACUUCUUUCATT against Ebf2,inactive: 0.757
21,GCUAGGAAGAGAGUGAUCUTT against Alg1,inactive: -0.838
22,GCCAUUGGAGUAUAUCUUGTT against Olfr873,inactive: 0.963
23,GGAAACUUUUGAUUGUAACTT against 2810021J22Rik,inactive: 0.643
24,GCACUUUAAGAGACAAUGUTT against Gpr63,inactive: 0.893
25,GCUACUAUCACAUAUGCACTT against Olfr1122,inactive: 0.514
26,GGUGGUACCAAGUACAACUTT against Deaf1,inactive: 1.94
27,GGCGUGAUAGCUGGACUUATT against 1110012L19Rik,inactive: -0.946

row,Sequence,z-score
1,GGAAAGUCGAUAAUGACAATT against Wdr12,inactive: -2.19
2,GGUUAUCAAAGCUAAGAAUTT against AI447904,inactive: 0.0486
3,GGCAGACAAUCAAUGAAAUTT against Padi4,inactive: 0.944
4,GCAAAAGUAGAAGAACAACTT against Ccnt1,inactive: -0.833
5,GGUGAAGAGCCACAAGUUCTT against Prkcc,inactive: -0.101
6,GGAGCUCUGUGAGAACGAUTT against Suv420h1,inactive: -1.46
7,GCGGCAUAAGUCCAAGCACTT against Crk7,inactive: -1.76
8,GCCAGUAAGGAAUUCAACUTT against C3,inactive: 0.87
9,GGCAAAUGUGGCCGUGUUUTT against Ccne1,inactive: 1.67
10,GGGUUAUCCGUAUGUUUUCTT against Olfr557,inactive: -0.646
11,GGGCUACUCUCUCAGGAUCTT against Dedd2,inactive: 0.93
12,GGCCAGUGGGAAGUGAAGATT against Sec13l1,inactive: -1.15
13,GGUGGAGAAAAAUGCAACATT against Clnk,inactive: 0.0368
14,GGUUUGAAAAGCGAAUUUATT against Vps4a,inactive: 3.37
15,GGCGCAGAGCAAAGGAUAUTT against Pcdha1,inactive: -0.301
16,GGCAUUAGAGCAGAGUCGUTT against Trmt1,inactive: 0.629
17,GGGAGUUUCACUGAAGCCATT against Prkch,inactive: 0.395
18,GGUGUAUUUCACGGGACCATT against Rela,inactive: 1.76
19,GGGAAAAAGAACAAAAGCATT against 2310044P18Rik,inactive: -0.501
20,GGAGGUGAUUUCGGGUAACTT against Ddr1,inactive: -0.515
21,GCCCAAUAUACUCUAAGGGTT against Cdh20,inactive: 0.338
22,GGCAAUUCCCAGCACGAUGTT against Usp43,inactive: 0.335
23,GGAUAUGGAGACACAGAUGTT against Mic2l1,inactive: 0.184
24,GCACAGUAGUUCUUGCAUCTT against Olfr891,inactive: 0.685
25,GCAUAUCUAUAACAGAGCCTT against Ear11,inactive: 0.31
26,CCAAAUAACUUUGUUGGCATT against Srrp,inactive: -0.579
27,GGCAUUGUGAAAUCCUAUUTT against Lhx5,inactive: 0.897

# 4 entries picked at random from the list so far:
row,Sequence,z-score
25,GCUACUAUCACAUAUGCACTT against Olfr1122,inactive: 0.514
3,CCGGCUUUGAAGUCAUUACTT against Slc4a3,inactive: -1.18
25,GCAUAUCUAUAACAGAGCCTT against Ear11,inactive: 0.31
14,GGUUUGAAAAGCGAAUUUATT against Vps4a,inactive: 3.37

# Carrying on:

row,Sequence,z-score
1,GCUUCAAAAGGACAGGUCATT against Galnt13,inactive: -0.35
2,GCUAAUGACCUGUGCCAAGTT against Sftpb,inactive: 0.641
3,GGUUGUAAAAGACCAUUAATT against Siat4c,inactive: 1.04
4,CCUGGAGAGCAUUGACAUCTT against Irx1,inactive: 0.0215
5,CCUUAUGGUGCGCAUUAAATT against Kcnq1,inactive: 0.343
6,GCUUAAUAAUUUCAUCCAGTT against Brms1l,inactive: -0.737
7,GGGUUCGAGGGUUCUUGUGTT against Gna12,inactive: -2.64
8,GCGCACAAAAAACAUGAUATT against 4921526K24Rik,inactive: 0.0286
9,GGAGGGUCGGCUUAUAAUUTT against 4930523C11Rik,inactive: 0.97
10,GCAGUUACACUGAAUACAUTT against Kctd8,inactive: 0.565
11,GGGCCGAUCAUGGUUAACATT against Cpt1a,inactive: -0.373
12,GGGUUAUCGAUAGAAAAUATT against Rag2,inactive: -0.745
13,GGAGAGUAGAUUCUCCAUUTT against AI839920,inactive: -0.128
14,GCAUGCCCGUAAUCAAGUGTT against Racgap1,inactive: 1.06
15,CGAGUAUGACACCUUCGACTT against Gpr97,inactive: 0.544
16,CCGGAAAUUUCUGAUGGAGTT against Eif4ebp1,inactive: 0.0692
17,GCACCUUGUCAACCAUUACTT against Kctd7,inactive: 0.0858
18,GGACGACGACUUUUUAAAATT against 0710005I19Rik,inactive: 0.273
19,CGCCAUAGUCAUCUUCUAATT against AI987944,inactive: -0.641
20,GGAAUGAGGUUUGUAGACUTT against 6330406P08Rik,inactive: 1.71
21,GGAGUUGGUUUGUAUCAAATT against Fgf15,inactive: -0.233
22,GCAUGCGCGCUACACUCUATT against Adamts5,active: 0.75
23,GGCCUUUAACAAGUUUCUATT against Csna,inactive: 1.44
24,GGAACUCAAAGUCAAGGUUTT against Cryab,inactive: -0.256
25,CCCAGCACUUUUUCGCUCUTT against Olfr458,inactive: 0.91
26,CGGGUUCAACUAAAUUCAGTT against Dnajc5,inactive: 0.157
27,GCCGAUAGCAUAGACAGUGTT against 2310037I24Rik,inactive: -1.24

# Look-ups from above.
# z-score with CGCCAUAGUCAUCUUCUAATT against AI987944 reads inactive: -0.641
# z-score with GGGCCGAUCAUGGUUAACATT against Cpt1a reads inactive: -0.373
# z-score with CGAGUAUGACACCUUCGACTT against Gpr97 reads inactive: 0.544

# Additional results:

row,Sequence,z-score
1,GCAUGUCGCCUUGAAAUUATT against Cpne4,inactive: -0.538
2,GCUACAUGUCAAAGAACCATT against 2210023C10Rik,inactive: 0.194
3,GCCUCCACAGACAAAUACGTT against Ap1gbp1,inactive: 0.145
4,GGUGUGUUUUUGCUUCUCUTT against 2310004K06Rik,inactive: -0.606
5,UGACUUGUGAGAUUGAUCGTT against 1810014F10Rik,inactive: 1.23
6,GGAAGACUACAUAAGAGACTT against Cxcl9,inactive: -0.461
7,CCCACAAAUUAAAGUCCGCTT against Cldn16,inactive: 0.51
8,CCAAGACUCUUUAUUCAACTT against Rasip1,inactive: 1.81
9,GGACGAGAAGAUUGUCUGCTT against Pamci,inactive: -1.01
10,GGGCACUGACAAACGUAUUTT against Olfr433,inactive: -0.192
11,GGUGGAAUUGGAAUCACCUTT against Wrb,inactive: -0.954
12,GCAGUGUAUAGGUGUACAATT against Krt2-17,inactive: -2.07
13,GGUUGUAGAUAUUUCAGACTT against Birc4,inactive: 0.695
14,GGGACAAAAACACAUGUACTT against Kif5c,inactive: -0.451
15,GGAAAGGACGACAUACAGGTT against C530015C18,inactive: 1.84
16,CCAUGCAAGAAUUAAAGCCTT against Anxa11,inactive: 0.932
17,GCUUCCAUAUCUUUCAUAGTT against Olfr987,inactive: -0.923
18,GGAGUUCAGCAACCUGUUGTT against 1810014L12Rik,inactive: -1.7
19,GGGAAUUCUUUGUUAAUGATT against Ceacam9,inactive: -0.309
20,GGUGCUGACAUCCUCUUUUTT against Chd9,inactive: -2.18
21,GGGCAACUAUAGAAUAGUGTT against Asb2,inactive: -0.597
22,GCUAGAGACGAGAAGAUGATT against AI604832,inactive: 0.38
23,GGAGAGCAGAUGUGAUUCUTT against Ftsj2,inactive: -0.33
24,GCUGACAAAGUGGUUUCUUTT against Olfr733,inactive: -0.21

# From PubChem BioAssay AID1347423 (Functional Genomics Laboratory (NCATS/FGL), 2020)
